No constants are given. Whether binding was seen depends on the method and setting. For some assays here: In cells and extracts the contact can be indirect. For some assays here: Binding can be weak; no strength is given. For some assays here: Where a sequence is shown, tags or fusion partners need not be part of it.
B1: At3g09770, C3HC4-type RING E3 ligase, prey in pDEST22 (enzyme, UniProt Q9S752 1-388)
chain: MGNISSSGGEGRRRRRRNHTAAPPPPPPPPSSSLPPPPLPTEIQANPIVFAAVTPYPNPNPNPVYQYPASYYHHPPPGAMPLPPYDHHLQHHPPHPYHNHSWAPVAMARYPYAGHMMAQPTPYVEHQKAVTIRNDVNLKKESLRLEPDPDNPGRFLVSFTFDATVSGRISVIFFAKESEDCKLTATKEDILPPITLDFEKGLGQKFKQSSGSGIDFSVFEDVELFKAAADTEIYPLAVKAEAAPSGGENEEEERSGSKNAQITQAVYEKDKGEIKIRVVKQILWVNGTRYELQEIYGIGNTVEGDDDSADDANDPGKECVICLSEPRDTTVLPCRHMCMCSGCAKVLRFQTNRCPICRQPVERLLEIKVHGNNGSGNNTGQGETVEQE
B2: At5g03200, C3HC4-type RING E3 ligase, prey in pDEST22 (enzyme, UniProt Q9LYW5 1-337)
chain: MGNLISLIFCCGRRQRSNIPPAMETAPLELPPNRFVFAAVPPYLNPNPNYVDQYPGNCLPPPVTEPPMLPYNFNHLHHYPPNSYQLPHPLFHGGRYPILPPPTYVHQKAVTIRNDVNLKKKTLTLIPDPENPNRLLVSFTFDASMPGRITVVFFATEDAECNLRATKEDTLPPITFDFGEGLGQKFIQSSGTGIDLTAFKDSELFKEVDTDVFPLAVKAEATPAEEGKSGSTNVQITQVVYTKEKGEIKIEVVKQILWVNKRRYELLEIYGIENTVDGSDEGKECVVCLSEPRDTTVLPCRHMCMCSGCAKALRFQTNLCPVCRQPVEMLLEINKNG
B3: RHA2a (At1g15100), E3 ligase, prey in pDEST22 (enzyme, UniProt Q9ZT50 1-155)
chain: MGLQGQLSDVSSDSIPLMLLSLLAVFINHLRSFLLRLTSKSNPNLPVDDVSIASGLANIIVLADQLSLNRLFSYRCGDGGGGGSDCVVCLSKLKEGEEVRKLECRHVFHKKCLEGWLHQFNFTCPLCRSALVSDDCVSKTQRSVGRDLISCFSLH
B4: XERICO (At2g04240), E3 ligase, prey in pDEST22 (enzyme, UniProt Q9SI09 1-162)
chain: MGLSSLPGPSEGMLCVILVNTALSISIVKGIVRSFLGIVGISLSPSSSSPSSVTVSSENSSTSESFDFRVCQPESYLEEFRNRTPTLRFESLCRCKKQADNECSVCLSKFQGDSEINKLKCGHLFHKTCLEKWIDYWNITCPLCRTPLVVVPEDHQLSSNVW
B5: At3g53410, C3HC4-type RING E3 ligase, prey in pDEST22 (enzyme, UniProt Q9LFH6 1-299)
chain: MGNVISGGSRPENHRDRTSPPYPNPNAQYQGNYPSPYQDCARYPYGEMASPVQYVEHQEAVTIRNDINLKKETLRLEPDEQNPGKFLLSFTFDASVPGSITVMFFAKEGKDCNLIATKEDLFPSTQVSFAKGLEQRFKQACGTGIDFSDMSEADLVEANETDVYHVAVKAEVVSEDDHPESGTPNRQITHVVLEKDHKGEYKARVVKQILWVNGNRYVLQEIYGIGNTVDDNGEDANERGKECVICLSEPRDTTVLPCRHMCMCSGCAKLLRFQTNLCPICRQPVDRLLEITVNNNDRN
B6: SDIR1 (At3g55530), E3 ligase, prey in pDEST22 (enzyme, UniProt Q9M2S6 1-273)
chain: MSFVFRGSRGDLESGFSGGFLPERRAMRVHGARPVNSNSLAFLVTVLLLFMILNSHQMPPNFLLWLVLGVFLMATTLRMYATCQQLQAHAQAQAAAASGLFSHTELRLHVPPSIALATRGRLQGLRLQLALLDREFDDLDYETLRALDSDNVSTTSMSEEEINALPVHKYKVLDPENGCSLAKQASTSSSAEKMLDSANESKKGTEDELTCSVCLEQVTVGEIVRTLPCLHQFHAGCIDPWLRQQGTCPVCKFRAHSGWQEQDEIDDDASDMV
B7: YFP^C-AtVBP1 (enzyme, UniProt Q84ME1 1-378)
chain: MGISLSKRRRDNNNNHHHPHHNPPYYYSDPPPQQPPPQNGYSYSHNYPVSTPQLSLPPPPAQPPSSSQPPPSQISYRPYGQNYHQNQYYPQQAPPYFTGYHHNGFNPMMRPVYFGPTPVAVMEPPAPYVEHQTAKKVKNDVNVNKATVRLVADDLNPGHYLVSFVFDALFDGSFTIIFFGEEESKCTIVPHLPEAFPPIKVPFQKGAGQKFLQAPGTGIDLGFFSLDDLSKPSPEEVYPLVISAETVISPSSVSEEPLVHKQITQAVLEKTNDGSFKVKVMKQILWIEGERYELQELYGIDNSITQGTAASGLEDTGGKECVICLTEPKDTAVMPCRHLCLCSDCAEELRFQTNKCPICRQPIHELVKIKVESSDEQH
B8: Arabidopsis bZIP63, BiFC fusions (protein, UniProt B9DGI8 1-314)
chain: MEKVFSDEEISGNHHWSVNGMTSLNRSASEWAFNRFIQESSAAADDGESTTACGVSVSSPPNVPVDSEEYRAFLKSKLNLACAAVAMKRGTFIKPQDTSGRSDNGGANESEQASLASSKATPMMSSAITSGSELSGDEEEADGETNMNPTNVKRVKRMLSNRESARRSRRRKQAHLSELETQVSQLRVENSKLMKGLTDVTQTFNDASVENRVLKANIETLRAKVKMAEETVKRLTGFNPMFHNMPQIVSTVSLPSETSNSPDTTSSQVTTPEIISSGNKGKALIGCKMNRTASMRRVESLEHLQKRIRSVGDQ

By UniProt entry, the sequences of proteins in these tests, tags left out. Where a name states a change or a piece, a line headed by the entry shows the natural chain unless it says otherwise.
UniProt D2D3G0: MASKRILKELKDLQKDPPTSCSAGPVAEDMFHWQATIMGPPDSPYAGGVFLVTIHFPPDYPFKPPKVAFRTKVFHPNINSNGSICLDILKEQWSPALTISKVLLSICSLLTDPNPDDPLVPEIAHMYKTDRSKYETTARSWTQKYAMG

target: VrUBC1 (Vigna radiata UBC 1), fused to the DNA-binding domain in pDEST32 (mung bean (Vigna radiata)); assay: two-hybrid; pDEST32 (bait, BD) / pDEST22 (prey, AD) in yeast MaV203; growth on SD/-Trp/-Leu/-Ura, X-beta-Gal and beta-galactosidase assay with ONPG; 30 C

binding | Binder
no binding | B1
no binding | B2
no binding | B3
no binding | B4
no binding | B5
no binding | B6

target: YFP^N-VrUBC1 (mung bean (Vigna radiata)) (UniProt D2D3G0); assay: split reporter; BiFC with pE-SPYNE/pE-SPYCE constructs coexpressed in N. benthamiana leaves by Agrobacterium infiltration with the p19 silencing plasmid; YFP fluorescence in protoplasts by confocal microscopy

binding | Binder
binds | B7
no binding | B8

Source: paper PMC3688854
